Results are given in words; binding and its absence hold for the method and conditions named. In cells and extracts the contact can be indirect. Here binding means that the protein was enriched with, or labelled near, the bait; the list need not be complete. For some assays here: A no says only that the protein was not detected with the bait.

For test [1], the target named is T1, biotinylated P7-Pen (SLAMF1-derived peptide P7 joined to penetratin).
T1 sequence (peptide, biotin covalently linked to the C-terminal lysine): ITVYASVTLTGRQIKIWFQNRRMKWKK
Briefly: affinity purification with mass spectrometry.

Test [2] addresses T2, biotinylated Penetratin (control peptide).
T2 sequence (peptide, biotin covalently linked to the C-terminal lysine): RQIKIWFQNRRMKWKK
Briefly: affinity purification with mass spectrometry.

B1: lysine deacetylase ABHD14B (enzyme, UniProt Q96IU4 1-210)
chain: MAASVEQREGTIQVQGQALFFREALPGSGQARFSVLLLHGIRFSSETWQNLGTLHRLAQAGYRAVAIDLPGLGHSKEAAAPAPIGELAPGSFLAAVVDALELGPPVVISPSLSGMYSLPFLTAPGSQLPGFVPVAPICTDKINAANYASVKTPALIVYGDQDPMGQTSFEHLKQLPNHRVLIMKGAGHPCYLDKPEEWHTGLLDFLQGLQ
In the case of B1, the binding entry in test [1] is listed as “binds”; in test [2], “no binding”.
